# According to the supplement of paper PMC8728848:
# The other results are listed elsewhere or left out.
# B1: Mermaid2 (Stilbonema majum) (protein)
# chain: MGSSHHHHHHSSGLVPRGSHMAASGWLRSPQGTVVKLYRRSLSWSKADEFCKDVDGRLVVDRTADMHLFLIKNVLKEKKSRVWVGLRRTAPHSRTWIWSDGTRQNEDDLNTNLWLRDEPNDAAGEEECALFMYSPWEKAWGLNDYLCRGGCRSYQFICEKGIR
# How the values were obtained:
# Experiment in all cases: glycan array binding signal (z-score within array); higher = stronger binding
# Settings in all cases: glycan notation: IUPAC condensed, linker removed
# [1] = biological target: Fuc(a1-2)[GalNAc(a1-3)]Gal(b1-3)GlcNAc(b1-6)GalNAc
# Method in brief: (§1)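 Negative Z-scores can be read as non-binding. The Z-score is calculated within each array and then averaged across arrays of one protein sequence at different concentrations or buffers and across linkers. Arrays, 3228 in all, were curated from the Consortium for Functional Glycomics database and kept only where the protein sequence was available.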
# [2] = biological target: Fuc(a1-2)[GalNAc(a1-3)]Gal(b1-4)Glc
# Method in brief: as §1
# [3] = biological target: Fuc(a1-2)[GalNAc(a1-3)]Gal(b1-4)GlcNAc
# Method in brief: as §1
# [4] = biological target: Fuc(a1-2)[GalNAc(a1-3)]Gal(b1-4)GlcNAc(b1-2)Man
# Method in brief: as §1
# [5] = biological target: Fuc(a1-2)[GalNAc(a1-3)]Gal(b1-4)GlcNAc(b1-2)Man(a1-3)[Fuc(a1-2)[GalNAc(a1-3)]Gal(b1-4)GlcNAc(b1-2)Man(a1-6)]Man(b1-4)GlcNAc(b1-4)GlcNAc
# Method in brief: as §1
# [6] = biological target: Fuc(a1-2)[GalNAc(a1-3)]Gal(b1-4)GlcNAc(b1-2)Man(a1-3)[Fuc(a1-2)[GalNAc(a1-3)]Gal(b1-4)GlcNAc(b1-2)Man(a1-6)]Man(b1-4)GlcNAc(b1-4)[Fuc(a1-6)]GlcNAc
# Method in brief: as §1
# [7] = biological target: Fuc(a1-2)[GalNAc(a1-3)]Gal(b1-4)GlcNAc(b1-3)Gal(b1-4)GlcNAc
# Method in brief: as §1
# [8] = biological target: Fuc(a1-2)[GalNAc(a1-3)]Gal(b1-4)GlcNAc(b1-3)Gal(b1-4)GlcNAc(b1-3)Gal(b1-4)GlcNAc
# Method in brief: as §1
# [9] = biological target: Fuc(a1-2)[GalNAc(a1-3)]Gal(b1-4)GlcNAc(b1-3)GalNAc
# Method in brief: as §1
# [10] = biological target: Fuc(a1-2)[GalNAc(a1-3)]Gal(b1-4)GlcNAc(b1-3)[Fuc(a1-2)[GalNAc(a1-3)]Gal(b1-4)GlcNAc(b1-6)]GalNAc
# Method in brief: as §1
# [11] = biological target: Fuc(a1-2)[GalNAc(a1-3)]Gal(b1-4)GlcNAc(b1-6)GalNAc
# Method in brief: as §1
# [12] = biological target: Fuc(a1-2)[GalNAc(a1-3)]Gal(b1-4)[Fuc(a1-3)]GlcNAc
# Method in brief: as §1
# [13] = biological target: Fuc(a1-2)[GalNAc(a1-3)]Gal(b1-4)[Fuc(a1-3)]GlcNAc(b1-3)GalNAc
# Method in brief: as §1
# [14] = biological target: Fuc(a1-2)[GalNAc(a1-4)]Gal(b1-4)GlcNAc
# Method in brief: as §1
# [15] = biological target: Fuc(a1-2)[GalNAc(b1-3)]Gal
# Method in brief: as §1
# Fuc(a1-3)GlcNAc = biological target: Fuc(a1-3)GlcNAc
# Method in brief: as §1
# [16] = biological target: Fuc(a1-3)[Gal(b1-4)]Glc6S
# Method in brief: as §1
# [17] = biological target: Fuc(a1-3)[Gal(b1-4)]GlcNAc
# Method in brief: as §1
# [18] = biological target: Fuc(a1-3)[Gal(b1-4)]GlcNAc(b1-2)Man
# Method in brief: as §1
# [19] = biological target: Fuc(a1-3)[Gal(b1-4)]GlcNAc(b1-2)Man(a1-3)[Fuc(a1-3)[Gal(b1-4)]GlcNAc(b1-2)Man(a1-6)]Man(b1-4)GlcNAc(b1-4)GlcNAc
# Method in brief: as §1
# [20] = biological target: Fuc(a1-3)[Gal(b1-4)]GlcNAc(b1-2)Man(a1-3)[Fuc(a1-3)[Gal(b1-4)]GlcNAc(b1-2)Man(a1-6)]Man(b1-4)GlcNAc(b1-4)[Fuc(a1-6)]GlcNAc
# Method in brief: as §1
# [21] = biological target: Fuc(a1-3)[Gal(b1-4)]GlcNAc(b1-3)Gal(b1-3)[Fuc(a1-4)]GlcNAc
# Method in brief: as §1
# [22] = biological target: Fuc(a1-3)[Gal(b1-4)]GlcNAc(b1-3)Gal(b1-4)[Fuc(a1-3)]GlcNAc
# Method in brief: as §1
# [23] = biological target: Fuc(a1-3)[Gal(b1-4)]GlcNAc(b1-3)Gal(b1-4)[Fuc(a1-3)]GlcNAc(b1-3)Gal(b1-4)[Fuc(a1-3)]GlcNAc
# Method in brief: as §1
# [24] = biological target: Fuc(a1-3)[Gal(b1-4)]GlcNAc(b1-3)GalNAc
# Method in brief: as §1
# [25] = biological target: Fuc(a1-3)[Gal(b1-4)]GlcNAc(b1-6)GalNAc
# Method in brief: as §1
# [26] = biological target: Fuc(a1-3)[Gal(b1-4)]GlcNAc(b1-6)[Gal(b1-3)GlcNAc(b1-3)]Gal(b1-4)Glc
# Method in brief: as §1
# [27] = biological target: Fuc(a1-3)[Gal(b1-4)]GlcNAc6S
# Method in brief: as §1
# [28] = biological target: Fuc(a1-3)[Gal3S(b1-4)]Glc
# Method in brief: as §1
# [29] = biological target: Fuc(a1-3)[Gal3S(b1-4)]GlcNAc
# Method in brief: as §1
# [30] = biological target: Fuc(a1-3)[Gal3S(b1-4)]GlcNAc6S
# Method in brief: as §1
# [31] = biological target: Fuc(a1-3)[GalNAc(b1-4)]GlcNAc
# Method in brief: as §1
# [32] = biological target: Fuc(a1-3)[GalNAc(b1-4)]GlcNAc6S
# Method in brief: as §1
# Fuc(a1-4)GlcNAc = biological target: Fuc(a1-4)GlcNAc
# Method in brief: as §1
# Fuc(b1-3)GlcNAc = biological target: Fuc(b1-3)GlcNAc
# Method in brief: as §1
# Gal(a1-2)Gal = biological target: Gal(a1-2)Gal
# Method in brief: as §1
# Gal(a1-3)Gal = biological target: Gal(a1-3)Gal
# Method in brief: as §1
# Gal(a1-3)Gal(b1-3)GlcNAc = biological target: Gal(a1-3)Gal(b1-3)GlcNAc
# Method in brief: as §1
# [33] = biological target: Gal(a1-3)Gal(b1-3)GlcNAc(b1-2)Man
# Method in brief: as §1
# [34] = biological target: Gal(a1-3)Gal(b1-3)GlcNAc(b1-2)Man(a1-3)[Gal(a1-3)Gal(b1-3)GlcNAc(b1-2)Man(a1-6)]Man(b1-4)GlcNAc(b1-4)GlcNAc
# Method in brief: as §1
# [35] = biological target: Gal(a1-3)Gal(b1-3)GlcNAc(b1-3)GalNAc
# Method in brief: as §1
# [36] = biological target: Gal(a1-3)Gal(b1-3)GlcNAc(b1-6)GalNAc
# Method in brief: as §1
# [37] = biological target: Gal(a1-3)Gal(b1-3)[Fuc(a1-4)]GlcNAc(b1-2)Man(a1-3)[Gal(a1-3)Gal(b1-3)[Fuc(a1-4)]GlcNAc(b1-2)Man(a1-6)]Man(b1-4)GlcNAc(b1-4)GlcNAc
# Method in brief: as §1
# Gal(a1-3)Gal(b1-4)Glc = biological target: Gal(a1-3)Gal(b1-4)Glc
# Method in brief: as §1
# Gal(a1-3)Gal(b1-4)GlcNAc = biological target: Gal(a1-3)Gal(b1-4)GlcNAc
# Method in brief: as §1
binder,measurement,setting,value
B1,glycan array binding signal (z-score),[1],-0.709
same,glycan array binding signal (z-score),[2],-0.627
same,glycan array binding signal (z-score),[3],-0.408
same,glycan array binding signal (z-score),[4],-0.465
same,glycan array binding signal (z-score),[5],-0.516
same,glycan array binding signal (z-score),[6],0.066
same,glycan array binding signal (z-score),[7],-0.302
same,glycan array binding signal (z-score),[8],-0.257
same,glycan array binding signal (z-score),[9],-0.433
same,glycan array binding signal (z-score),[10],0.024
same,glycan array binding signal (z-score),[11],-0.72
same,glycan array binding signal (z-score),[12],0.262
same,glycan array binding signal (z-score),[13],-0.713
same,glycan array binding signal (z-score),[14],0.06
same,glycan array binding signal (z-score),[15],-0.551
same,glycan array binding signal (z-score),Fuc(a1-3)GlcNAc,-0.031
same,glycan array binding signal (z-score),[16],1.56
same,glycan array binding signal (z-score),[17],0.157
same,glycan array binding signal (z-score),[18],-0.471
same,glycan array binding signal (z-score),[19],-0.485
same,glycan array binding signal (z-score),[20],-0.867
same,glycan array binding signal (z-score),[21],-0.144
same,glycan array binding signal (z-score),[22],1.68
same,glycan array binding signal (z-score),[23],-0.459
same,glycan array binding signal (z-score),[24],-0.024
same,glycan array binding signal (z-score),[25],-0.123
same,glycan array binding signal (z-score),[26],-0.797
same,glycan array binding signal (z-score),[27],1.8
same,glycan array binding signal (z-score),[28],-0.681
same,glycan array binding signal (z-score),[29],0.273
same,glycan array binding signal (z-score),[30],-0.19
same,glycan array binding signal (z-score),[31],0.87
same,glycan array binding signal (z-score),[32],-0.66
same,glycan array binding signal (z-score),Fuc(a1-4)GlcNAc,1.95
same,glycan array binding signal (z-score),Fuc(b1-3)GlcNAc,-0.713
same,glycan array binding signal (z-score),Gal(a1-2)Gal,1.42
same,glycan array binding signal (z-score),Gal(a1-3)Gal,-0.664
same,glycan array binding signal (z-score),Gal(a1-3)Gal(b1-3)GlcNAc,-0.531
same,glycan array binding signal (z-score),[33],-0.306
same,glycan array binding signal (z-score),[34],0.095
same,glycan array binding signal (z-score),[35],0.342
same,glycan array binding signal (z-score),[36],0.012
same,glycan array binding signal (z-score),[37],1.53
same,glycan array binding signal (z-score),Gal(a1-3)Gal(b1-4)Glc,-0.239
same,glycan array binding signal (z-score),Gal(a1-3)Gal(b1-4)GlcNAc,-0.361

# Quoted at random: 3 records from the list, in no set order.
binder,measurement,setting,value
B1,glycan array binding signal (z-score),[22],1.68
same,glycan array binding signal (z-score),[27],1.8
same,glycan array binding signal (z-score),Fuc(a1-4)GlcNAc,1.95
